Assay results as given in US20260158156A1 (priority 2021, published 2026).

Experiment: general procedure: solution-phase peptide synthesis; perfluorophenyl active ester, DIPEA
Details: coupling step
Substance “(18S, 59S)-18-((benzyloxy)carbonyl)-59-((S)-2-(4-(2, 5-dioxo-2, 5-dihydro-1H-pyrrol-1-yl)butanamido)propanamido)-3, 16, 21, 37, 53, 60, 63, 66, 69-nonaoxo-1-phenyl-2, 25, 28, 31, 34, 41, 44, 47, 50-nonaoxa-17, 22, 38, 54, 61, 64, 67, 70-octaaza” has a step yield of 79%.
In the case of “(S)-methyl 2-((2R, 3R)-3-((S)-1-((3R, 4S, 5S)-4-((S)-2-((tert-butoxycarbonyl)amino)-N, 3-dimethylbutanamido)-3-methoxy-5-methylheptanoyl)pyrrolidin-2-yl)-3-methoxy-2-methylpropanamido)-3-phenylpropanoate”, the step yield is reported as 77%.
For “(S)-methyl 2-((2R, 3R)-3-((S)-1-((5S, 8S, 11S, 14S, 15R)-14-((S)-sec-butyl)-8, 11-diisopropyl-15-methoxy-5, 7, 13-trimethyl-3, 6, 9, 12-tetraoxo-1-phenyl-2-oxa-4, 7, 10, 13-tetraazaheptadecan-17-oyl)pyrrolidin-2-yl)-3-methoxy-2-methyl propanamido)-3-phenylpropanoate”, the step yield was 88% yield.
For “(S)-methyl 2-((2R, 3R)-3-((S)-1-((6S, 9S, 12S, 13R)-12-((S)-sec-butyl)-6, 9-diisopropyl-13-methoxy-2, 2, 5, 11-tetramethyl-4, 7, 10-trioxo-3-oxa-5, 8, 11-triazapentadecan-15-oyl)pyrrolidin-2-yl)-3-methoxy-2-methylpropanamido)-3-phenylpropanoate”, the step yield was 39%.

Same assay, conditions: late stage modification step
For “(S)-2-((2R, 3R)-3-((S)-1-((3R, 4S, 5S)-4-((S)—N, 3-dimethyl-2-((S)-3-methyl-2-(methylamino)butanamido)butanamido)-3-methoxy-5-methylheptanoyl)-pyrrolidin-2-yl)-3-methoxy-2-methylpropanamido)-3-phenylpropanoic acid (MMAF)”, the step yield was “˜100%”.
“(S)-2-((2R, 3R)-3-((S)-1-((6S, 9S, 12S, 13R)-12-((S)-sec-butyl)-6, 9-diisopropyl-13-methoxy-2, 2, 5, 11-tetramethyl-4, 7, 10-trioxo-3-oxa-5, 8, 11-triazapenta-decan-15-oyl)pyrrolidin-2-yl)-3-methoxy-2-methylpropanamido)-3-phenylpropanoic acid” gave a step yield of 85%.
In the case of “(S)-methyl 2-((2R, 3R)-3-((S)-1-((3R, 4S, 5S)-4-((S)-2-((S)-2-((S)-2-amino-N-methylpropanamido)-3-methylbutanamido)-N, 3-dimethylbutanamido)-3-methoxy-5-methylheptanoyl)pyrrolidin-2-yl)-3-methoxy-2-methylpropanamido)-3-phenylpropanoate”, the step yield is reported as 96% yield.
